Patent publication US20230045791A1
These are yes or no findings as the source states them, for the method shown. Some results given as binding are weak or reduced against the parent protein; the word gives no strength. Values belong to the binder of their own block, whether it stands above or below them.

Amino acid sequences for entries named in this document (tags omitted). A change or cut given only in a name is not applied to a line headed by its entry. Chains listed by the source or under a name are the forms on record and can include a tag or linker. Residues count along the entry.
rhesus monkey TNFR2 expressed on CHO cells (CHO.mkHFB3) (F7GUU0, form named): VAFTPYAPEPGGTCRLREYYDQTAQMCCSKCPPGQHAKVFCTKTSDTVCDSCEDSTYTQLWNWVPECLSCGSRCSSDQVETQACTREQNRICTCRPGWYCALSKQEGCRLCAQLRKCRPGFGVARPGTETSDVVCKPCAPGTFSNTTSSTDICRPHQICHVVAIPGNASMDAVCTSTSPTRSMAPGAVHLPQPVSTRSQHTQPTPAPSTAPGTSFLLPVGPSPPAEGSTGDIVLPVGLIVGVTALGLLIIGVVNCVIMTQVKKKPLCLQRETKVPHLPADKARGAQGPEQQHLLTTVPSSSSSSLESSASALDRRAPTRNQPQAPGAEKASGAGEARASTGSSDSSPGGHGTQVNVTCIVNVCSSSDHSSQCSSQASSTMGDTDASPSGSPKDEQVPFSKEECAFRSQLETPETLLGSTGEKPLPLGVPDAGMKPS
UniProt P20333: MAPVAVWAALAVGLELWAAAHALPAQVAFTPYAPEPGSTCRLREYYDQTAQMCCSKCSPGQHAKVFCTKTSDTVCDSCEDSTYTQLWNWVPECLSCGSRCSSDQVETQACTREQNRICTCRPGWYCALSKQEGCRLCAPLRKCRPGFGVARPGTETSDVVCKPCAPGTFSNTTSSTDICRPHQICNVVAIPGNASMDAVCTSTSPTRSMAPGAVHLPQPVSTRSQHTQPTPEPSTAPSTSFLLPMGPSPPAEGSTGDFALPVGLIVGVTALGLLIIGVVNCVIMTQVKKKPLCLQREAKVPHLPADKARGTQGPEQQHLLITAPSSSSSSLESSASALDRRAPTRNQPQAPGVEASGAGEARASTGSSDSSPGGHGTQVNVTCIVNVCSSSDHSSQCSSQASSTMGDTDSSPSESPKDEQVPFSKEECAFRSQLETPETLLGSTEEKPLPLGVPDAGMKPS
human TNFR2 on T cells and NK cells of the humanized TNFR2 knock-in (KI) mouse: residues 23-461 of P20333
His-tagged recombinant human TNFR2: residues 23-257 of P20333

Assays:
[1] = target: rhesus monkey TNFR2 expressed on CHO cells (CHO.mkHFB3) (rhesus monkey) (UniProt F7GUU0); experiment: flow cytometry on CHO cells expressing rhesus monkey TNFR2 (CHO.mkHFB3), anti-human Fc-AF647 detection
[2] = target: human TNFR2 on T cells and NK cells of the humanized TNFR2 knock-in (KI) mouse (human) (UniProt P20333); experiment: in vivo TNFR2 receptor occupancy by FACS on tumor and blood leukocytes of MC38-bearing humanized TNFR2 KI mice
[3] = target: human TNFR2 on T cells and NK cells of the humanized TNFR2 knock-in (KI) mouse (human) (UniProt P20333); experiment: ex vivo binding to CD3 T cells of humanized TNFR2 KI mice, single dose of 200 nM antibody; data not shown
[4] = target: human TNFR2 on T cells and NK cells of the humanized TNFR2 knock-in (KI) mouse (human) (UniProt P20333); experiment: in vivo TNFR2 receptor occupancy by FACS on tumor-infiltrating leukocytes (FIG. 25A)
[5] = target: human TNFR2 on T cells and NK cells of the humanized TNFR2 knock-in (KI) mouse (human) (UniProt P20333); experiment: ex vivo binding to CD8 T cells of the TNFR2 KI mouse; data not shown
[6] = target: human TNFR2 on T cells and NK cells of the humanized TNFR2 knock-in (KI) mouse (human) (UniProt P20333); experiment: in vivo TNFR2 receptor occupancy by FACS on selected peripheral blood cells (FIG. 25B)
[7] = target: recombinant cynomolgus TNFR2 (cynoTNFR2-His) (cynomolgus); experiment: ELISA on recombinant cynoTNFR2-His (FIG. 14A)
[8] = target: recombinant cynomolgus TNFR2 (cynoTNFR2-His) (cynomolgus); experiment: ELISA (FIG. 14A)
[9] = target: human TNFR2 expressed on cells (CHO.hHFB3 / CHO.hTNFR2 cells; primary human T cells) (human) (UniProt P20333); experiment: flow cytometry on CHO.hTNFR2 cells (FIG. 12A)
[10] = target: human TNFR2 expressed on cells (CHO.hHFB3 / CHO.hTNFR2 cells; primary human T cells) (human) (UniProt P20333); experiment: flow cytometry on CHO.hHFB3 cells (FIG. 12B)
[11] = target: His-tagged recombinant human TNFR2 (human) (UniProt P20333); experiment: ELISA on recombinant hTNFR2-His (FIG. 14A)
[12] = target: His-tagged recombinant human TNFR2 (human) (UniProt P20333); experiment: ELISA (FIG. 14A)
[13] = target: human TNFR2 expressed on cells (CHO.hHFB3 / CHO.hTNFR2 cells; primary human T cells) (human) (UniProt P20333); experiment: flow cytometry on CHO cells expressing human TNFR2 (FIG. 12A)

binding [1]: binds
binding [2]: binds
binding [3]: binds
binding [4]: binds
binding [5]: binds
binding [6]: binds
B1: HFB3-1-hG1 (mouse monoclonal antibody) (antibody, human IgG1, kappa, V domains shown)
VH: EFQLQQSGPELVKPGASVKISCKASSYSFTDYNMNWVKQSNGKSLEWIGIIFPKYGTTSYNQKFKGKATLTVDQSSSTAYMQLNSLTSEDSAVYYCATDGGTWYFDVWGTGTTVTVSS
VL: QIVLTQSPALMSASPGEKVTMTCSASSSVTYMYWYQQKPRSSPKPWIYLTSNLASGVPARFSGSGSGTSYSLTISSMEAEDAATYYCQQWSSNPPTFGSGTKLEIKR

binding [3]: binds
binding [7]: binds
binding [8]: binds
binding [5]: binds
B4: HFB3-18hz1-hG1 (humanized monoclonal antibody) (antibody, V domains shown)
VH: EVQLVESGGGLVQPGGSLKLSCAASGFTFSDAWMDWVRQASGKGLEWVGEVRNKANNHATYYAASVKGRFTISRDDSKNTAYLQMNSLKTEDTAVYYCTRSVGGYGTTYWYFDVWGQGTTVTVSS
VL: DIVMTQSPDSLAVSLGERATINCKSSQNLLNSGNQKNYLAWYQQKPGQPPKLLIFGASTRESGVPDRFSGSGSGTDFTLTISSLQAEDVAVYYCQSEHSYPYTFGQGTKLEIKR

binding [9]: binds
binding [3]: binds
binding [10]: binds
binding [11]: binds
binding [7]: binds
binding [8]: binds
binding [12]: binds
binding [13]: binds
binding [5]: binds
B5: HFB3-14hz1c-hG1 (humanized monoclonal antibody) (antibody, V domains shown)
VH: QVQLVQSGAEVKKPGSSVKVSCKASGYTFTDYYMNWVRQAPGQGLEWMGDINPNDGGTTYAQKFQGRVTITADESTSTAYMELSSLRSEDTAVYFCAREGNYYAYDVRVWYFDVWGQGTTVTVSS
VL: DIQMTQSPSSLSASVGDRVTITCGASQDIITYLNWYQQKPGKAVKLLIYSTSSLNSGVPSRFSGSGSGTDFTLTISSLQPEDFATYYCQQYSELPYTFGGGTKVELKR

The next lines start with the binder.

B2: HFB3-1hz6-hG1 (humanized monoclonal antibody) (antibody, V domains shown)
VH: QVQLVQSGAELKKPGASVKVSCKASSYSFTDYNMNWVRQAPGQSLEWMGIIFPKYGTTSYAQKLQGRVTLTTDTSTSTAYMELRSLRSDDTAVYYCATDGGTWYFDVWGTGTTVTVSS
VL: DIQLTQSPSFLSASVGDRVTITCRASSSVTYMYWYQQKPGKAPKPWIYLTSNLASGVPSRFSGSGSGTEYTLTISSLQPEDAATYYCQQWSSNPPTFGSGTKLEIKR
binding [3]: binds
binding [7]: binds
binding [8]: binds
binding [5]: binds

B3: HFB3-18-hG1 (mouse monoclonal antibody) (antibody, human IgG1, kappa, V domains shown)
VH: EVKLEESGGGLVQPGGSMKLSCAASGFTFSDAWMDWVRQSPEKGLEWVAEVRNKANNHATYYAESVKGRFTISRDDSKSSVYLQMNSLRAEDTGIYYCTRSVGGYGTTYWYFDVWGTGTTVTVSS
VL: DIVMTQSPSSLSVSAGEKVTMSCKSSQNLLNSGNQKNYLAWYQQKPGQPPKLLIFGASTRESGVPDRFTGSGSGTDFTLTISSVQAEDLAVYYCQSEHSYPYTFGGGTKLEIKR
binding [1]: binds
binding [3]: binds
binding [5]: binds
